Laboratory results: article PMC8143632
Results are given in words; binding and its absence hold for the method and conditions named. In cells and extracts the contact can be indirect. A yes stands for co-enrichment or nearness to the bait. Other partners may have been found. For part of these data: A no says only that the protein was not detected with the bait. For part of these data: Sequences can lack the tags named with a protein.

By UniProt entry, the sequences of proteins in these tests, tags left out.
UniProt Q9UBU8: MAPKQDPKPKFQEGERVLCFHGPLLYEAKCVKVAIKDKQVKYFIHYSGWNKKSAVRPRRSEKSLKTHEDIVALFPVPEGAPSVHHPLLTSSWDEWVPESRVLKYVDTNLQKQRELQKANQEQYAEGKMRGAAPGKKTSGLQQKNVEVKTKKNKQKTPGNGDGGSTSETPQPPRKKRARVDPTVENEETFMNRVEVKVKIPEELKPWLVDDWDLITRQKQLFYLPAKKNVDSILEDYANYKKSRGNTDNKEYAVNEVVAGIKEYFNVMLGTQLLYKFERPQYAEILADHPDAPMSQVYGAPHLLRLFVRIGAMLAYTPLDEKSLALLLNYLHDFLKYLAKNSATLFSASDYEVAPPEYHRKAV
UniProt Q96QT6: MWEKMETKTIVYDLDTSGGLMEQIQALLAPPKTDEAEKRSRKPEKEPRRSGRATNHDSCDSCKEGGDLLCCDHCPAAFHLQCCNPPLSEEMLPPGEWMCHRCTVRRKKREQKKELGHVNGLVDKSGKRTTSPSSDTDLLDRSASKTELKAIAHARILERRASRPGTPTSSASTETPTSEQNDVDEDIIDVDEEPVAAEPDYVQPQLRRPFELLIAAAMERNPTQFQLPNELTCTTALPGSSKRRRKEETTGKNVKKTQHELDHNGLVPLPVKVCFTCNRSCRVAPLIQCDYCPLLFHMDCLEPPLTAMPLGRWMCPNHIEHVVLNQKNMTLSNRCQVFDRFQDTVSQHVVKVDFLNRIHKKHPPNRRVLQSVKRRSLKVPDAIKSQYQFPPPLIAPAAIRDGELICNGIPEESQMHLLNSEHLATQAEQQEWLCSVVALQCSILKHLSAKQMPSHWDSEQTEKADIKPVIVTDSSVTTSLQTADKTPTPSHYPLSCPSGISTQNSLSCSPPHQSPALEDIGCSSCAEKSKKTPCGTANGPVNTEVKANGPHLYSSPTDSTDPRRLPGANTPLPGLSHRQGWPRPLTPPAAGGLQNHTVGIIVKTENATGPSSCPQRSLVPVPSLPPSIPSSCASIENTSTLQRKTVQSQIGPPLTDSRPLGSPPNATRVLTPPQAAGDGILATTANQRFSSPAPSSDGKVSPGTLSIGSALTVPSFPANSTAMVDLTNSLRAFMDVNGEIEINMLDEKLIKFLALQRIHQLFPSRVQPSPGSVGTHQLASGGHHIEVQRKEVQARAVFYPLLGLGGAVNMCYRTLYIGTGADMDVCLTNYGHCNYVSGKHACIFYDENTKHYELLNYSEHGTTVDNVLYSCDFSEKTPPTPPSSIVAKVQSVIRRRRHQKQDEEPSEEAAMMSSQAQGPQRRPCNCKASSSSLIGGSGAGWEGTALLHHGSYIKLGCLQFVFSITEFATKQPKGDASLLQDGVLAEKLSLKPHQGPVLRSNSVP

T1: SIN3B_2-HaloTag (human) (UniProt O75182)
T1 sequence: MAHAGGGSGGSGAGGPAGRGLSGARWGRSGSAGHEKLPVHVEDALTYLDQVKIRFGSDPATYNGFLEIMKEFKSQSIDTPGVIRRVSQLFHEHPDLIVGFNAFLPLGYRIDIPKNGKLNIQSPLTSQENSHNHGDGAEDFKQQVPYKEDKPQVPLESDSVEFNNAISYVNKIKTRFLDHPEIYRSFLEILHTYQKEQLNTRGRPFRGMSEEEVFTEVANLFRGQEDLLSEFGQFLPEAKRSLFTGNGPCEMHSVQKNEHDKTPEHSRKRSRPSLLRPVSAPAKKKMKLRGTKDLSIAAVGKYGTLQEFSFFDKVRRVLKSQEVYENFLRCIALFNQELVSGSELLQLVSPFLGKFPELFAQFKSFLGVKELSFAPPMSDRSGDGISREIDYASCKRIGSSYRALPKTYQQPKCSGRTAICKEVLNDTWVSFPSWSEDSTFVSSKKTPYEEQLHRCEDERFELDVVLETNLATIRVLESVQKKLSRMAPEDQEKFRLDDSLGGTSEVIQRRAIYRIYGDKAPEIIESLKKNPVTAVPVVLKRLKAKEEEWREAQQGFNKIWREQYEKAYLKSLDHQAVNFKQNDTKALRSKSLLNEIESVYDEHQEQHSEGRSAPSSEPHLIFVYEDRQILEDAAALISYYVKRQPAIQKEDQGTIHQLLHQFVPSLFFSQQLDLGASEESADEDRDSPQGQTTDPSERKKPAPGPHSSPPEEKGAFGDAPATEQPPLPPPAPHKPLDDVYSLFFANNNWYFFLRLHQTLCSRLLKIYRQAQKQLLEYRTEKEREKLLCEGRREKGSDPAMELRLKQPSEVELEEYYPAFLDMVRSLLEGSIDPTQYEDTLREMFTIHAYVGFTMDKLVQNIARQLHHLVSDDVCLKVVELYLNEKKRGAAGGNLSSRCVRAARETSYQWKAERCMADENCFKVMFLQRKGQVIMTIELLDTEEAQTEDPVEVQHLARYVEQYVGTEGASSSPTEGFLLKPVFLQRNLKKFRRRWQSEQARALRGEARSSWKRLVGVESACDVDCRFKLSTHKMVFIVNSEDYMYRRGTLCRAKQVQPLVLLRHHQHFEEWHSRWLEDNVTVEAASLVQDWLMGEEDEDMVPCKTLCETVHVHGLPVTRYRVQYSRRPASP

T2: SIN3A-HaloTag (human) (UniProt Q96ST3)
T2 sequence: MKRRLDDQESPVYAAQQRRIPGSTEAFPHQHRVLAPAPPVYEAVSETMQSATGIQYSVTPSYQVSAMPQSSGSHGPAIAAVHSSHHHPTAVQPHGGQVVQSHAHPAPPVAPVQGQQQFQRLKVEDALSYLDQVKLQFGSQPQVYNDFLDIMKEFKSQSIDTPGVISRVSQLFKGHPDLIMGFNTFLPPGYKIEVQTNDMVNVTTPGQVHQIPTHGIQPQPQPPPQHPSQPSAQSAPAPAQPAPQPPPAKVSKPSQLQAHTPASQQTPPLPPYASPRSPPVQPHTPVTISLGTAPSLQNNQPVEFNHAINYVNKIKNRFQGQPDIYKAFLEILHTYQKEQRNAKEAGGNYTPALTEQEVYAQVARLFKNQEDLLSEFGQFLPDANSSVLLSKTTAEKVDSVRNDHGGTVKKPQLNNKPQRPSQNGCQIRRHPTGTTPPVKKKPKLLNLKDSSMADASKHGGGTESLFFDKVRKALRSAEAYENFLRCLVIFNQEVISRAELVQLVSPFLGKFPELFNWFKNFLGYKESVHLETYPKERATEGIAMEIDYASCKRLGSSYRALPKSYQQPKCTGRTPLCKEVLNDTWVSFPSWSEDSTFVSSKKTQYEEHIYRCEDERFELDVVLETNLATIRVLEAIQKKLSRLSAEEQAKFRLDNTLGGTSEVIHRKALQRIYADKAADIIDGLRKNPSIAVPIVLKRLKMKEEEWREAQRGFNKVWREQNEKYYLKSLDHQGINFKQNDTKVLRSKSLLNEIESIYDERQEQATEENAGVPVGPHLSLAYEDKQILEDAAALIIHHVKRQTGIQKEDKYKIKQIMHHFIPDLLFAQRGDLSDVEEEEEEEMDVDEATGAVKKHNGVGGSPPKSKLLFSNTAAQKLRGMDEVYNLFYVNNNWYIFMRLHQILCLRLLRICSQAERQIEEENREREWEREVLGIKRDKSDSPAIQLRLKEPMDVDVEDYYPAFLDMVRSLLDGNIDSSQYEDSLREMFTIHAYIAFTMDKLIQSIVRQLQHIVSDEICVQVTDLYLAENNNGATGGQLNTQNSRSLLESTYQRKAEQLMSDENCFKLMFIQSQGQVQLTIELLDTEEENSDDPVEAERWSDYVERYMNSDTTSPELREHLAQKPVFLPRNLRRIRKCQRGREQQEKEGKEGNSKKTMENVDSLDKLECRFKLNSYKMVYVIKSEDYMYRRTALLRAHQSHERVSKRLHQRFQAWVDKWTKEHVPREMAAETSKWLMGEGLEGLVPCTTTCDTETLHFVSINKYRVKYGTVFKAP

B1: SUDS3 (protein, UniProt Q9H7L9 1-328)
chain: MSAAGLLAPAPAQAGAPPAPEYYPEEDEELESAEDDERSCRGRESDEDTEDASETDLAKHDEEDYVEMKEQMYQDKLASLKRQLQQLQEGTLQEYQKRMKKLDQQYKERIRNAELFLQLETEQVERNYIKEKKAAVKEFEDKKVELKENLIAELEEKKKMIENEKLTMELTGDSMEVKPIMTRKLRRRPNDPVPIPDKRRKPAPAQLNYLLTDEQIMEDLRTLNKLKSPKRPASPSSPEHLPATPAESPAQRFEARIEDGKLYYDKRWYHKSQAIYLESKDNQKLSCVISSVGANEIWVRKTSDSTKMRIYLGQLQRGLFVIRRRSAA
B2: BRMS1L (protein, UniProt Q5PSV4 1-323)
chain: MPVHSRGDKKETNHHDEMEVDYAENEGSSSEDEDTESSSVSEDGDSSEMDDEDCERRRMECLDEMSNLEKQFTDLKDQLYKERLSQVDAKLQEVIAGKAPEYLEPLATLQENMQIRTKVAGIYRELCLESVKNKYECEIQASRQHCESEKLLLYDTVQSELEEKIRRLEEDRHSIDITSELWNDELQSRKKRKDPFSPDKKKPVVVSGPYIVYMLQDLDILEDWTTIRKAMATLGPHRVKTEPPVKLEKHLHSARSEEGRLYYDGEWYIRGQTICIDKKDECPTSAVITTINHDEVWFKRPDGSKSKLYISQLQKGKYSIKHS
B3: GATAD1 (protein, UniProt Q8WUU5 1-269)
chain: MPLGLKPTCSVCKTTSSSMWKKGAQGEILCHHCTGRGGAGSGGAGSGAAGGTGGSGGGGFGAATFASTSATPPQSNGGGGGKQSKQEIHRRSARLRNTKYKSAPAAEKKVSTKGKGRRHIFKLKNPIKAPESVSTIITAESIFYKGVYYQIGDVVSVIDEQDGKPYYAQIRGFIQDQYCEKSAALTWLIPTLSSPRDQFDPASYIIGPEEDLPRKMEYLEFVCHAPSEYFKSRSSPFPTVPTRPEKGYIWTHVGPTPAITIKESVANHL
B4: SAP30 (protein, UniProt O75446 1-220)
chain: MNGFTPDEMSRGGDAAAAVAAVVAAAAAAASAGNGTGAGTGAEVPGAGAVSAAGPPGAAGPGPGQLCCLREDGERCGRAAGNASFSKRIQKSISQKKVKIELDKSARHLYICDYHKNLIQSVRNRRKRKGSDDDGGDSPVQDIDTPEVDLYQLQVNTLRRYKRHFKLPTRPGLNKAQLVEIVGCHFRSIPVNEKDTLTYFIYSVKNDKNKSDLKVDSGVH
B5: SAP30L (protein, UniProt Q9HAJ7 1-183)
chain: MNGFSTEEDSREGPPAAPAAAAPGYGQSCCLIEDGERCVRPAGNASFSKRVQKSISQKKLKLDIDKSVRHLYICDFHKNFIQSVRNKRKRKTSDDGGDSPEHDTDIPEVDLFQLQVNTLRRYKRHYKLQTRPGFNKAQLAETVSRHFRNIPVNEKETLAYFIYMVKSNKSRLDQKSEGGKQLE
B6: BRMS1 (protein, UniProt Q9HCU9 1-246)
chain: MPVQPPSKDTEEMEAEGDSAAEMNGEEEESEEERSGSQTESEEESSEMDDEDYERRRSECVSEMLDLEKQFSELKEKLFRERLSQLRLRLEEVGAERAPEYTEPLGGLQRSLKIRIQVAGIYKGFCLDVIRNKYECELQGAKQHLESEKLLLYDTLQGELQERIQRLEEDRQSLDLSSEWWDDKLHARGSSRSWDSLPPSKRKKAPLVSGPYIVYMLQEIDILEDWTAIKKARAAVSPQKRKSDGP
B7: ING2 (protein, UniProt Q9H160 1-280)
chain: MLGQQQQQLYSSAALLTGERSRLLTCYVQDYLECVESLPHDMQRNVSVLRELDNKYQETLKEIDDVYEKYKKEDDLNQKKRLQQLLQRALINSQELGDEKIQIVTQMLELVENRARQMELHSQCFQDPAESERASDKAKMDSSQPERSSRRPRRQRTSESRDLCHMANGIEDCDDQPPKEKKSKSAKKKKRSKAKQEREASPVEFAIDPNEPTYCLCNQVSYGEMIGCDNEQCPIEWFHFSCVSLTYKPKGKWYCPKCRGDNEKTMDKSTEKTKKDRRSR
B8: FAM60A (protein, UniProt Q9NP50 1-221)
chain: MFGFHKPKMYRSIEGCCICRAKSSSSRFTDSKRYEKDFQSCFGLHETRSGDICNACVLLVKRWKKLPAGSKKNWNHVVDARAGPSLKTTLKPKKVKTLSGNRIKSNQISKLQKEFKRHNSDAHSTTSSASPAQSPCYSNQSDDGSDTEMASGSNRTPVFSFLDLTYWKRQKICCGIIYKGRFGEVLIDTHLFKPCCSNKKAAAEKPEEQGPEPLPISTQEW

Target: T1, SIN3B_2-HaloTag (human)
Test: affinity purification with mass spectrometry; Halo-tagged bait stably expressed in Flp-In-293 cells; lysate with HL-SAN nuclease 2 U/ml for 2 h at 4 °C; bait captured on Magne HaloTag Beads, eluted with AcTEV Protease; MudPIT; enrichment over cells without transgene by QSPEC (Z-statistic >= 3 and log2 fold change >= 2)

Row | Binder | binding
1 | B1 | binds
2 | B2 | binds
3 | B3 | binds

Target: Halo-tagged MORF4L1 (human) (UniProt Q9UBU8)
Test: as above

Row | Binder | binding
4 | B4 | no binding
5 | B5 | no binding
6 | B1 | no binding
7 | B2 | no binding
8 | B6 | no binding
9 | B7 | no binding

Target: T2, SIN3A-HaloTag (human)
Test: as above

Row | Binder | binding
10 | B4 | binds
11 | B5 | binds
12 | B8 | binds
13 | B1 | binds
14 | B2 | binds
15 | B6 | binds

Target: Halo-tagged PHF12 (human) (UniProt Q96QT6)
Test: as above

Row | Binder | binding
16 | B4 | no binding
17 | B5 | no binding
18 | B1 | no binding
19 | B2 | no binding
20 | B6 | no binding
21 | B7 | no binding
